PubChem BioAssay AID720505 – Drosophila RNAi Screening Center – 2013

- Assay: 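Genes needed for store-operated calcium entry in fly cells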 (primary screen)
- Cells: Drosophila S2R+ cells
- Reagent: long dsRNA against Drosophila genes
- Conditions: thapsigargin (2 µM) in calcium-free buffer to empty internal stores, then 2 mM calcium added back
- Measured: 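Stores emptied by 2 µM thapsigargin without calcium, then 2 mM calcium re-added; fluo-4 fluorescence followed by FLIPR in 384-well plates, per-well averaged endpoint, raw; two screen passes, some wells retested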
- Direction: calcium signal and retest calcium signal: higher = more calcium entry after store depletion
- Active means: 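Knock-downs counted as hits when calcium entry dropped relative to STIM1 positive and Rho1 negative controls present on each plate; roughly 1500 genes called, with reductions of differing size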
- Meaning of the calls: active = called as lowering calcium entry; inactive = not called
The deposit covers about 20,000 reagents; shown is a random part of those with a known target gene and a result. Of all reagents, about 2,100 (10%) got an active call. 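Raw plate signals without normalisation; calls rest on control-based scores that were not deposited; replicate 2 separates called from uncalled poorly.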 The numbers tell different reagents against one gene apart. Names joined by + are all predicted targets of the reagent. The record does not give: the amount of reagent, the time to read-out.

The first 8 entries as a preview:
no.	Target gene	dsRNA no.	calcium signal, replicate 1	calcium signal, replicate 2	retest calcium signal, replicate 1	retest calcium signal, replicate 2	outcome
1	Ptp4E	1	104	84.5			inactive
2	Gr39b	1	89.3	4392	75.6	100	inactive
3	CG43335	1	154	137			inactive
4	CG43335	2	102	120			inactive
5	CG17977	1	90.5	86.2			inactive
6	CG1801	1	68	165			active
7	nudC	1	103	193			inactive
8	nudC	2	95.2	194			inactive

Results, from the start:
no.	Target gene	dsRNA no.	calcium signal, replicate 1	calcium signal, replicate 2	retest calcium signal, replicate 1	retest calcium signal, replicate 2	outcome
1	Ptp4E	1	104	84.5			inactive
2	Gr39b	1	89.3	4392	75.6	100	inactive
3	CG43335	1	154	137			inactive
4	CG43335	2	102	120			inactive
5	CG17977	1	90.5	86.2			inactive
6	CG1801	1	68	165			active
7	nudC	1	103	193			inactive
8	nudC	2	95.2	194			inactive
9	Peritrophin-A	1	142	130			inactive
10	CG5107	1	113	98			inactive
11	CG8952	1	109	132			inactive
12	RpL37-2	1	129	230			inactive
13	Rexo5	1	98.4	79.7			inactive
14	CG4714	1	128	113			inactive
15	TwdlL	1	174	155			inactive
16	CG9416	1	113	105			inactive
17	Ars2	1	193	120			inactive
18	Ets98B	1	72.2	108	119	81.8	active
19	Adgf-C	1	142	171			inactive
20	Gba1b	1	191	106			inactive
21	CG13427	1	135	121			inactive
22	sut2	1	229	242			inactive
23	Sulf1	1	139	148			inactive
24	CG14676	1	141	218			inactive
25	mRpL4	1	106	89.8			inactive
26	CG32237	1	87.7	59.3			inactive
27	CG32237	2	103	90.6			inactive
28	Grx5	1	106	163			inactive
29	CG5854	1	79.3	123			inactive
30	RpL40	1	90.8	102			inactive
31	RhoGAP100F	1	122	133			inactive
32	Dph1	1	132	105			inactive
33	eIF2alpha	1	93.7	119			inactive
34	Ca-alpha1T	1	301	96.5			inactive
35	Ca-alpha1T	2	238	111	6552	148	inactive
36	Ca-alpha1T	3	221	125			inactive
37	Ca-alpha1T	4	69.8	236			active
38	Ca-alpha1T	5	140	86.7			inactive
39	FER	1					inactive
40	FER	2	108	128			inactive
41	CG10638	1	135	121			inactive
42	EMC10	1	84.7	172			inactive
43	CG6700	1	87.9	120			inactive
44	CG9886	1	82.3	179			inactive
45	e	1	175	269			inactive
46	CG13002	1	119	127			inactive
47	CheB93a	1	179	84.6			inactive
48	RFeSP	1	176	149			inactive
49	Oatp33Ea	1	98.6	132			inactive
50	tra2	1	140	159			inactive
51	fabp + sea	1	70.7	130			active
52	fabp + sea	2	78.8	120			active
53	CG8303	1	182	130			inactive
54	CG17097	1	215	142			inactive
55	Su(H)	1	116	136			inactive
56	CG14230	1	129	97.3			inactive
57	CR40354	1	71	11784			inactive
58	CG33463	1	104	165			inactive
59	Ero1L	1	119	88.1			inactive
60	CG30037	1	94.2	246			inactive
61	Dab	1	120	153	5392	118	inactive
62	CG33914	1	72.7	69.5			inactive
63	CG33914	2	77.7	81.5			inactive
64	Cyp309a2	1	178	132			inactive
65	trbd	1	95.2	112			inactive
66	CG10077	1	167	74			inactive
67	CG4615	1	73.1	122			active
68	RanBP3	1	192	242			inactive
69	RanBP3	2	101	103			inactive
70	CG3032	1	235	112			inactive
71	CG2127	1	141	158			inactive
72	MED28	1	239	114			inactive
73	Dera	1	221	152			inactive
74	Dera	2	115	93.6			inactive
75	dysf	1	203	137			inactive
76	dysf	2	247	113			inactive
77	dysf	3	225	108			inactive
78	dysf	4	224	122			inactive
79	CG9581	1	139	125	87.3	93.2	inactive
80	CG9581	2	105	142			inactive
81	CG30338	1	73.8	65.7			active
82	CG31140	1	119	152			inactive
83	CG31140	2	252	118			inactive
84	Hrb98DE	1	78	133			inactive
85	Proc	1	104	151			inactive
86	Proc	2	100	126			inactive
87	ms(2)34Fe	1	101	85.6			inactive
88	CG10298	1	113	144			inactive
89	CG15262	1	104	115			inactive
90	ord	1	88.3	156			inactive
91	loco	1	150	115			inactive
92	loco	2	237	243			inactive
93	Chro	1	75.2	73.4			inactive
94	stc	1	84.2	114			inactive
95	Tip60	1	131	144			inactive
96	osp	1	175	88.9			inactive
97	osp	2	68.8	118			active
98	CG17294	1	97.6	211			inactive
99	OXA1L	1	84.3	113			inactive
100	CG7997	1	152	119			inactive
101	CG1494	1	204	99.4			inactive
102	Fum2	1	165	137			inactive
103	lncRNA:CR41601	1	76	196			inactive
104	hig	1	119	108	78.1	119	inactive
105	hig	2	98.1	99			inactive
106	hig	3	123	164			inactive
